In all, about 33,000 sequences were measured (“E-score (-0.5 to 0.5)”: median about -0.0034, highest 2% from about 0.25 on). This is one part of the list.
target: T1, Yap3 (UniProt P38749); experiment: PBM E-score (8-mer binding enrichment) (E-score (-0.5 to 0.5)); higher = stronger / more preferred TF binding; conditions: protein concentration: 100 nM; construct: GST-full length
T1 sequence: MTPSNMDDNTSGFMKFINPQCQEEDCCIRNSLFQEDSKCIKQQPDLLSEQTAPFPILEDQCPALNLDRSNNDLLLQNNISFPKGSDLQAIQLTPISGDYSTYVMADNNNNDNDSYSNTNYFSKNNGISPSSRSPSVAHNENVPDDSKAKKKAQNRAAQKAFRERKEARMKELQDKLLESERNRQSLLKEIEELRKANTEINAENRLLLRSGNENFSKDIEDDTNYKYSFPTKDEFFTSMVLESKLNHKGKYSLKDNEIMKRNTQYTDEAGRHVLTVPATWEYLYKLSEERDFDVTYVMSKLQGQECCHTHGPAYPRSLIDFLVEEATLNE
Summary of the method: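 Bound GST-tagged yeast transcription factors, applied at about 100-200 nM to double-stranded universal all-10-mer Agilent arrays, were detected with fluorescent anti-GST. Scans were normalised with masliner. A modified Wilcoxon-Mann-Whitney statistic, the E-score, was assigned to each ungapped eight-base word pooled with its reverse complement by the Universal PBM Analysis Suite.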

Sequence	PBM E-score
CGCATCAC	-0.0578
ATACGTTG	0.0773
TCCGGCCA	-0.115
ATCTCGCC	-0.131
AAACCTTT	-0.0466
AAAGATCT	-0.0503
TACTTATA	0.0807
TAATTTGA	0.0257
CATGTCGA	-0.00696
CCAGTTCC	-0.115
CGGCAGTC	-0.108
CGGCGGCA	-0.243
TATAGCCA	0.122
CCGTACAC	0.0127
CAAGGGGG	-0.226
ATCTGGAA	0.0543
GCCACGCA	-0.17
AAGTGTGA	0.0366
TCCTTACA	0.0749
CGTCCTAC	-0.0667
AGTTACAA	0.113
ATAGTAAT	0.212

Reformatted with bars between the fields: part of the list above
Sequence | PBM E-score
CATGTCGA | -0.00696
CCAGTTCC | -0.115
CGGCAGTC | -0.108
CGGCGGCA | -0.243
TATAGCCA | 0.122
CCGTACAC | 0.0127

Remaining list, next part:

Sequence	PBM E-score
AGACCAGG	-0.12
AGCGCAAA	-0.073
GACGGCGC	-0.115
AACTAGAT	0.0716
CCCATACC	-0.0532
GAACATCC	0.101
TCTATGCA	0.0427
ACACTAAG	-0.0672
CACGCGTA	0.0329
AATGCTGC	-0.00914
CTGTACCA	-0.177
ATGACGTG	0.127
ACGAAGCC	-0.0311
GACCACGA	0.0626
GGCATTCA	0.0407
GCAGTGAC	-0.11
GTGCTAGA	0.0158
GGAAAAAC	0.3
CGAGACGA	-0.0632
GGCGCCCC	-0.203
ATTAGGCA	-0.0189
AGGAATAT	0.148

Sequence	PBM E-score
AAACCGGC	-0.0239
CCTATCAC	-0.118
GCTTGCAC	-0.169
AAATCACT	0.133
TACAGGTA	0.105
CTGTCTCC	-0.0717
ACGCTCCT	-0.0527
CATCGCGG	-0.082
ATGCCATG	0.0188
TGCTGAAA	0.00603
AGCGCATC	0.0137
AGCGGCCG	-0.02
CGGCTTCC	-0.0962
AACCCTCA	0.00014
GCGCTAGC	-0.118
CGCAGCCC	-0.253
GGACAGCC	-0.105
GGCCGACA	-0.183
CCGTGTGC	-0.0669
ATCTGGAG	-0.165
TAGGTTGA	-0.0164
CCTTCGGC	-0.301

Sequence	PBM E-score
GCAAGACC	-0.0586
CACATTGG	0.0753
CGGCTGAA	-0.182
ATCAATCA	0.145
AGTGCACT	0.00706
CCGGCTAG	-0.289
GGCCACCC	-0.23
CAGGTTGC	0.097
GTGTATTA	0.338
GGGAGAAA	-0.0432
GACCTATA	0.136
ACTGAACT	-0.0105
AGGCTGCA	-0.111
GCTCCGGA	-0.0914
CGCGTCTA	0.102
AGCAACAG	-0.0561
GCACGGAC	0.00362
ACGTATTG	0.111
TGCTTACA	0.0854
ACGGTCTA	0.062

— the supplement of paper PMC3334620
